From paper doi:10.1101/2024.08.27.609947
Results are given in words; binding and its absence hold for the method and conditions named. In cells and extracts the contact can be indirect. Some binding calls cover weakened binding; strength is not graded here. Sequences can lack the tags named with a protein.

Protein sequences, listed by entry. Tags and fused reporters are not part of them.
UniProt P20434: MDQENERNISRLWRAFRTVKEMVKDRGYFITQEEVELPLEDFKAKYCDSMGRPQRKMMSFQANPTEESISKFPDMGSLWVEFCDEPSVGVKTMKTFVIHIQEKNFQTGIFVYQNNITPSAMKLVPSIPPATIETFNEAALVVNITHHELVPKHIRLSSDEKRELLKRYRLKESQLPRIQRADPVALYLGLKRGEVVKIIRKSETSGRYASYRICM

T1: Rpc2 (Rpc128) with C-terminal TAP tag (S. cerevisiae (endogenous in strain YLy3)) (UniProt P22276)
T1 sequence: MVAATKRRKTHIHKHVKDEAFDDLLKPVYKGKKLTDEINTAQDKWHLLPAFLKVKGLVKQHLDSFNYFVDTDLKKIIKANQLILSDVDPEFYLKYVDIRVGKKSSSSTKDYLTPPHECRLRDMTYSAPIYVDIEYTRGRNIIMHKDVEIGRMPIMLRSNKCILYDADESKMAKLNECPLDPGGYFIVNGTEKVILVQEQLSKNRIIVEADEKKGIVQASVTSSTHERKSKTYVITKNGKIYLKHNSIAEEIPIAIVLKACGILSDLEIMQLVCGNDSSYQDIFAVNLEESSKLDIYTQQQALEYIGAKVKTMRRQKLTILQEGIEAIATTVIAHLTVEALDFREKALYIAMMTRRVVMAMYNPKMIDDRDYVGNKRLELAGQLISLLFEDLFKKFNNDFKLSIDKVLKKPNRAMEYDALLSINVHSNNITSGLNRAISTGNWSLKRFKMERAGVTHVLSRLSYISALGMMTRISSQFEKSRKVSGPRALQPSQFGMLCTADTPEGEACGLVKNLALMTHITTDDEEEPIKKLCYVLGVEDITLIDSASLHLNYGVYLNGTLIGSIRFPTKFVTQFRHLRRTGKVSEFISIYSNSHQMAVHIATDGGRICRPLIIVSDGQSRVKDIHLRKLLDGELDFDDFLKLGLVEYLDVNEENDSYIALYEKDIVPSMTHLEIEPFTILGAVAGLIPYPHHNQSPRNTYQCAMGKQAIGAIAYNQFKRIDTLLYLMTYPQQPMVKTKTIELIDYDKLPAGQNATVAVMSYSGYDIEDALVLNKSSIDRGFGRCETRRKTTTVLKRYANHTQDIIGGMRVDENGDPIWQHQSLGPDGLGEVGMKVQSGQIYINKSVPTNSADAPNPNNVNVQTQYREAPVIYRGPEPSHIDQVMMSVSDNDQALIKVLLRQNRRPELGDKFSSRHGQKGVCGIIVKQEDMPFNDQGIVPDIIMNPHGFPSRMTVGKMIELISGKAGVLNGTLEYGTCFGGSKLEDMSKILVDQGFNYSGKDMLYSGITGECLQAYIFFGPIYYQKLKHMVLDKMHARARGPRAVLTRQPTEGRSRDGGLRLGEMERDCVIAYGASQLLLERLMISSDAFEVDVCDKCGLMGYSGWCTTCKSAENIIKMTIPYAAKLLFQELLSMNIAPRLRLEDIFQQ


molecular target: T1, Rpc2 (Rpc128) with C-terminal TAP tag (S. cerevisiae (endogenous in strain YLy3)); assay: pull-down

Row | binding | Molecule
1 | binds | ABC27 (from UniProt P20434 1-215)
2 | binds | Rpc1 (Rpc160) (protein, UniProt P04051 1-1460) MKEVVVSETPKRIKGLEFSALSAADIVAQSEVEVSTRDLFDLEKDRAPKANGALDPKMGVSSSSLECATCHGNLASCHGHFGHLKLALPVFHIGYFKATIQILQGICKNCSAILLSETDKRQFLHELRRPGVDNLRRMGILKKILDQCKKQRRCLHCGALNGVVKKAAAGAGSAALKIIHDTFRWVGKKSAPEKDIWVGEWKEVLAHNPELERYVKRCMDDLNPLKTLNLFKQIKSADCELLGIDATVPSGRPETYIWRYLPAPPVCIRPSVMMQDSPASNEDDLTVKLTEIVWTSSLIKAGLDKGISINNMMEHWDYLQLTVAMYINSDSVNPAMLPGSSNGGGKVKPIRGFCQRLKGKQGRFRGNLSGKRVDFSGRTVISPDPNLSIDEVAVPDRVAKVLTYPEKVTRYNRHKLQELIVNGPNVHPGANYLLKRNEDARRNLRYGDRMKLAKNLQIGDVVERHLEDGDVVLFNRQPSLHRLSILSHYAKIRPWRTFRLNECVCTPYNADFDGDEMNLHVPQTEEARAEAINLMGVKNNLLTPKSGEPIIAATQDFITGSYLISHKDSFYDRATLTQLLSMMSDGIEHFDIPPPAIMKPYYLWTGKQVFSLLIKPNHNSPVVINLDAKNKVFVPPKSKSLPNEMSQNDGFVIIRGSQILSGVMDKSVLGDGKKHSVFYTILRDYGPQEAANAMNRMAKLCARFLGNRGFSIGINDVTPADDLKQKKEELVEIAYHKCDELITLFNKGELETQPGCNEEQTLEAKIGGLLSKVREEVGDVCINELDNWNAPLIMATCGSKGSTLNVSQMVAVVGQQIISGNRVPDGFQDRSLPHFPKNSKTPQSKGFVRNSFFSGLSPPEFLFHAISGREGLVDTAVKTAETGYMSRRLMKSLEDLSCQYDNTVRTSANGIVQFTYGGDGLDPLEMEGNAQPVNFNRSWDHAYNITFNNQDKGLLPYAIMETANEILGPLEERLVRYDNSGCLVKREDLNKAEYVDQYDAERDFYHSLREYINGKATALANLRKSRGMLGLLEPPAKELQGIDPDETVPDNVKTSVSQLYRISEKSVRKFLEIALFKYRKARLEPGTAIGAIGAQSIGEPGTQMTLKTFHFAGVASMNVTLGVPRIKEIINASKVISTPIINAVLVNDNDERAARVVKGRVEKTLLSDVAFYVQDVYKDNLSFIQVRIDLGTIDKLQLELTIEDIAVAITRASKLKIQASDVNIIGKDRIAINVFPEGYKAKSISTSAKEPSENDVFYRMQQLRRALPDVVVKGLPDISRAVINIRDDGKRELLVEGYGLRDVMCTDGVIGSRTTTNHVLEVFSVLGIEAARYSIIREINYTMSNHGMSVDPRHIQLLGDVMTYKGEVLGITRFGLSKMRDSVLQLASFEKTTDHLFDAAFYMKKDAVEGVSECIILGQTMSIGTGSFKVVKGTNISEKDLVPKRCLFESLSNEAALKAN
3 | binds | Rpc82 (protein, UniProt P32349 1-654) MDELLGEALSAENQTGESTVESEKLVTPEDVMTISSLEQRTLNPDLFLYKELVKAHLGERAASVIGMLVALGRLSVRELVEKIDGMDVDSVKTTLVSLTQLRCVKYLQETAISGKKTTYYYYNEEGIHILLYSGLIIDEIITQMRVNDEEEHKQLVAEIVQNVISLGSLTVEDYLSSVTSDSMKYTISSLFVQLCEMGYLIQISKLHYTPIEDLWQFLYEKHYKNIPRNSPLSDLKKRSQAKMNAKTDFAKIINKPNELSQILTVDPKTSLRIVKPTVSLTINLDRFMKGRRSKQLINLAKTRVGSVTAQVYKIALRLTEQKSPKIRDPLTQTGLLQDLEEAKSFQDEAELVEEKTPGLTFNAIDLARHLPAELDLRGSLLSRKPSDNKKRSGSNAAASLPSKKLKTEDGFVIPALPAAVSKSLQESGDTQEEDEEEEDLDADTEDPHSASLINSHLKILASSNFPFLNETKPGVYYVPYSKLMPVLKSSVYEYVIASTLGPSAMRLSRCIRDNKLVSEKIINSTALMKEKDIRSTLASLIRYNSVEIQEVPRTADRSASRAVFLFRCKETHSYNFMRQNLEWNMANLLFKKEKLKQENSTLLKKANRDDVKGRENELLLPSELNQLKMVNERELNVFARLSRLLSLWEVFQMA
